US11480502B2, “Method and composition for optical clearing of tissues” (The United States of America, as represented by the …, priority 2016, dated 2022)
Read-outs that look alike come from different tables or passages of the source.

Test system: tissues
Test: Tissue transparency with tested clearing reagents combined with a density gradient medium (Table 1)
Parameters: key: more “+”s being desirable; ++: more “+”s being desirable; +++: more “+”s being desirable; ++++: more “+”s being desirable; level 5 (“+++++”); ++++++: more “+”s being desirable
[1] = clearing reagent combined with a density gradient medium

Question: NCC(O)CO (racemic) [(±)-3-Amino-1,2-propanediol] was tested. Which “Tissue Transparency” value [1] did it give?
Answer: The value was “+++++”.

Question: Which “Tissue Transparency” value [1] does the source give for CN(C)C(N)=O [1,1-Dimethylurea] here?
Answer: Its value is “++”.

Question: How did the “Tissue Transparency” value [1] turn out when CCNC(=O)NCC [1,3-Diethylurea] was run?
Answer: Its value is “++”.

Question: With CC(O)CN(C)C (stereo not drawn) [1-Dimethylamino-2-propanol] as the molecule, how does the “Tissue Transparency” value [1] read?
Answer: The value was “++++”.

Question: For CN(C)C(=O)CN [2-Amino-N,N-dimethylacetamide], which “Tissue Transparency” value [1] is on record?
Answer: Its value is “+”.

Question: For CNC(=O)CN [2-Amino-N-methylacetamide], which “Tissue Transparency” value [1] is on record?
Answer: Its value is “+”.

Question: With O=C(CCl)NCO [2-Chloro-N-(hydroxymethyl)acetamide] as the molecule, how does the “Tissue Transparency” value [1] read?
Answer: The value was “+++++”.

Question: With CN(C)C(C)(C)CO [2-Dimethylamino-2-methylpropanol] as the molecule, how does the “Tissue Transparency” value [1] read?
Answer: Its value is “+++++”.

Question: How did the “Tissue Transparency” value [1] turn out when CNC(=O)CO [2-Hydroxy-N-methylacetamide] was run?
Answer: Its value is “+++”.

Question: For CN(C)CCCO [3-Dimethylamino-1-propanol], which “Tissue Transparency” value [1] is on record?
Answer: The value was “+++++”.

Question: CNCC(O)CO (stereo not drawn) [3-Methylamino-1,2-propanediol] was tested. Which “Tissue Transparency” value [1] did it give?
Answer: The value was “+++++”.

Question: For CNCCCO [3-Methylamino-1-propanol], which “Tissue Transparency” value [1] is on record?
Answer: The value was “++++”.

Question: Which “Tissue Transparency” value [1] does the source give for CC(N)=O [Acetamide] here?
Answer: The value was “+”.

Question: CC(O)CNCC(C)O (stereo not drawn) [Bis(2-hydroxypropyl)amine] was tested. Which “Tissue Transparency” value [1] did it give?
Answer: Its value is “+++++”.

Question: With NC=O [Formamide] as the molecule, how does the “Tissue Transparency” value [1] read?
Answer: Its value is “++++++”.

Question: Which “Tissue Transparency” value [1] does the source give for NC(=O)CO [Glycolamide] here?
Answer: The value was “++”.

Question: For CCN(CC)C(=O)CO [N,N-Diethyl-2-hydroxyacetamide], which “Tissue Transparency” value [1] is on record?
Answer: The value was “+++”.

Question: For CNC(=O)NC [N,N′-Dimethylurea], which “Tissue Transparency” value [1] is on record?
Answer: The value was “++++”.

Question: Which “Tissue Transparency” value [1] does the source give for COc1ccccc1NC(C)=O [N-(2-Methoxyphenyl)acetamide] here?
Answer: Its value is “+”.

Question: How did the “Tissue Transparency” value [1] turn out when CC(=O)NCO [N-(Hydroxymethyl)acetamide] was run?
Answer: Its value is “+++”.

Question: For CC(=O)N[Si](C)(C)C [N-(Trimethylsilyl)acetamide], which “Tissue Transparency” value is on record?
Answer: The value was “+”.

Question: CCNC(C)=O [N-Ethylacetamide] was tested. Which “Tissue Transparency” value [1] did it give?
Answer: The value was “++++”.

Question: CON(C)C(C)=O [N-Methoxy-N-methylacetamide] was tested. Which “Tissue Transparency” value [1] did it give?
Answer: The value was “+++”.

Question: How did the “Tissue Transparency” value [1] turn out when CNC(C)=O [N-Methylacetamide] was run?
Answer: The value was “+++++”.

Question: With CNC=O [N-Methylformamide] as the molecule, how does the “Tissue Transparency” value [1] read?
Answer: Its value is “++++++”.

Question: NC(CO)CO [Serinol] was tested. Which “Tissue Transparency” value [1] did it give?
Answer: Its value is “++++”.

Question: Which “Tissue Transparency” value [1] does the source give for NC(N)=O [Urea] here?
Answer: The value was “+++”.
